Results taken from publication PMC10136643.
No constants are given. Whether binding was seen depends on the method and setting. Binding seen in cells or lysates may run through a third protein. Some entries that bind do so weakly or less than the wild type.

Amino acid sequences for entries named in this document (tags omitted).
UniProt Q96SB4: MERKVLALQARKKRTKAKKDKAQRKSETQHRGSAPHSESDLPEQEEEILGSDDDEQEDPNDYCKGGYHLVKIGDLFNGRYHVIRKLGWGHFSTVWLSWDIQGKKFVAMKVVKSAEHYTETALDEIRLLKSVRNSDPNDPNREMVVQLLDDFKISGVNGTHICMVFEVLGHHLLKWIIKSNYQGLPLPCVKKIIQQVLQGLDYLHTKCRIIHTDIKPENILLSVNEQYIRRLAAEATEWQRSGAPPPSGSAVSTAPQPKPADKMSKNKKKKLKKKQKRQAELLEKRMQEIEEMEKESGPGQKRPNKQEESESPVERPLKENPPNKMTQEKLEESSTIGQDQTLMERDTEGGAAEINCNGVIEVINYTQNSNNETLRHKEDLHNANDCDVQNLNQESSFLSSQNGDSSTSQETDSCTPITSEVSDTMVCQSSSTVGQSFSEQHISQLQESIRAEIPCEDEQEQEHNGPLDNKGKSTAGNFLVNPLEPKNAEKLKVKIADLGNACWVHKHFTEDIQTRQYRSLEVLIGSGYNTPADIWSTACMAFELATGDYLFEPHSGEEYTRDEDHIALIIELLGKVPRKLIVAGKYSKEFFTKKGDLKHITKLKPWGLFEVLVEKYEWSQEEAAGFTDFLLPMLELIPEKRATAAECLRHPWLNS

Target: serine/arginine-rich splicing factor (SRSF) protein kinase-1 (human (endogenous in LCC2)) (UniProt Q96SB4)
Experiment: co-IP; SRPK1 immunoprecipitated from LCC2 lysate with anti-SRPK (sc-100443) at 4 °C overnight, Dynabead Protein A; Co-IP buffer 20 mM Tris-Cl pH 7.4, 150 mM NaCl, 0.5% NP-40, 10% glycerol; Western blot with anti-SRPK1 and anti-SRSF5

- binding: binds
B1: SRSF5 (protein, UniProt Q13243 1-272)
chain: MSGCRVFIGRLNPAAREKDVERFFKGYGRIRDIDLKRGFGFVEFEDPRDADDAVYELDGKELCSERVTIEHARARSRGGRGRGRYSDRFSSRRPRNDRRNAPPVRTENRLIVENLSSRVSWQDLKDFMRQAGEVTFADAHRPKLNEGVVEFASYGDLKNAIEKLSGKEINGRKIKLIEGSKRHSRSRSRSRSRTRSSSRSRSRSRSRSRKSYSRSRSRSRSRSRSKSRSVSRSPVPEKSQKRGSSSRSKSPASVDRQRSRSRSRSRSVDSGN
